Data taken from patent US20260224618A1 (ORICELL THERAPEUTICS, published 2026).
No constants are given. Whether binding was seen depends on the method and setting. Some entries that bind do so weakly or less than the wild type. For part of these data: Tags and fused reporters may be left off the sequences shown.

Protein sequences, listed by entry. Tags and fused reporters are not part of them. Lines headed by an entry give the natural chain unless they say otherwise; changes in a name come on top. Chains listed by the source or under a name are the forms on record and can include a tag or linker.
Human MSLN-His antigen (Q13421, form named): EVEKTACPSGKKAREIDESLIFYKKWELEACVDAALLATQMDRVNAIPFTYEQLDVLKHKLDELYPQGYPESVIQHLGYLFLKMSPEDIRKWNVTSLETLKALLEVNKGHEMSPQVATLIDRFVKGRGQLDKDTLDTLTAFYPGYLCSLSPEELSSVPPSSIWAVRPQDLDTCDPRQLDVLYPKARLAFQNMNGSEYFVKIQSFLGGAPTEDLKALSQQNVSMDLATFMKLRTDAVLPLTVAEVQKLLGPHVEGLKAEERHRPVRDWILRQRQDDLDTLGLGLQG

Tests used:
Human MSLN-His antigen [1] = molecular target: T1, Human MSLN-His antigen (human, UniProt Q13421 296-580, limits assumed); experiment: ELISA, plate coated with 2 ug/ml MSLN-His, VHH-Fc diluted 2.5-fold from 200 nM, anti-human IgG Fc HRP, OD450
T1 construct: also called MSLN-his protein; human MSLN protein; not shown: His tag

Human MSLN-His antigen [2] = molecular target: T1, Human MSLN-His antigen; experiment: ELISA, plate coated with 2 ug/ml MSLN-His, VHH-Fc detected with anti-human IgG Fc HRP
Human MSLN-His antigen [3] = molecular target: T1, Human MSLN-His antigen; experiment: ForteBio biolayer interferometry, antibody loaded on AHC probes, human MSLN-His in solution 2-fold diluted from 100 nM, 180 s association, 360 s dissociation
[4] = molecular target: Human MSLN-His antigen (human) (UniProt Q13421); experiment: ELISA, plate coated with 2 ug/ml MSLN-His, VHH-Fc diluted 2.5-fold from 200 nM, anti-human IgG Fc HRP, OD450
[5] = molecular target: Human MSLN-His antigen (human) (UniProt Q13421); experiment: ForteBio biolayer interferometry, antibody loaded on AHC probes, human MSLN-His in solution 2-fold diluted from 100 nM, 180 s association, 360 s dissociation
[6] = molecular target: Human MSLN-His antigen (human) (UniProt Q13421); experiment: ELISA, plate coated with 2 ug/ml MSLN-His, VHH-Fc detected with anti-human IgG Fc HRP
Human MSLN-His antigen [7] = molecular target: T1, Human MSLN-His antigen; experiment: ELISA, plate coated with 2 ug/ml MSLN-His, antibody diluted 2.5-fold from 200 nM, anti-human IgG Fc HRP, OD450
Experimental: A high-absorption 384-well plate was coated with 2 μg/ml of MSLN-His […], and left standing at 4° C. overnight. The plate was washed three times with 1×PBST, and blocked with 5% of skimmed milk at room temperature for 2 h. During the blocking, the antibody MSLN-VHH was diluted 2.5-fold starting from a concentration of 200 nM for a total of 11 gradients. At the end of blocking, the plate was washed three times with 1×PT, into which were added corresponding diluted primary antibodies at 30 μl/well and incubated with shaking at room temperature for 1 h. The plate was washed three times with 1×PBST, into which were then added secondary antibodies Anti-human IgG Fc Antibody HRP (abcam, Item No. ab99759) and incubated at room temperature for 30-60 min. The plate was washed seven times with 1×PBST, into which was then added a TMB developer, and 2M phosphoric acid was added 3-5 min later to stop the reaction. The absorbance was read at a wavelength of 450 nm.

Human MSLN-His antigen [8] = molecular target: T1, Human MSLN-His antigen; experiment: BLI (ForteBio), AHC probe, human MSLN-His in solution

| Binder | binding (Human MSLN-His antigen [1]) | binding (Human MSLN-His antigen [2]) | further results |
| --- | --- | --- | --- |
| MSLN45 VHH-Fc fusion protein (Fc fusion, Tested as bivalent VHH-Fc expressed in EXPI293 and detected with anti-human IgG Fc; also called MSLN-VHH; MSLN nanobody 45; not shown: Fc of the VHH-Fc fusion) QVQLQESGGGLVQPGGSLRLSCAASGSIFSINAMGWYRQPPGKQRELVAATSWGGRTNYADSVEGRFTISRDNAKNTVYLQMNSLKPEDTAVYYCKLWDGSSWDIYWGQGTQVTVSS | binds | binds | – |
| MSLN47 VHH-Fc fusion protein (Fc fusion, Tested as bivalent VHH-Fc expressed in EXPI293; also called MSLN-VHH; MSLN nanobody 47; not shown: Fc of the VHH-Fc fusion) QVQLQESGGGLVQAGGSLRLSCAASGSIFSINAMGWYRQPPGKQRELVAATSWGGRTNYADSVEGRFTISRDNAKNTVYLQMNSLKPEDTAVYYCKLWDGSSWDIYWGQGTQVTVSS | binds | binds | – |
| MSLN51 VHH-Fc fusion protein (Fc fusion, Tested as bivalent VHH-Fc expressed in EXPI293; also called MSLN-VHH; MSLN nanobody 51; not shown: Fc of the VHH-Fc fusion) QVQLQESGGGLVQTGGSLRLSCAASGSIFSINAMGWYRQPPGKQRELVAATSWGGRTNYADSVEGRFTISRDNAKNTVYLQMNSLKPEDTAVYYCKLWDGSSWDIYWGQGTQVTVSS | binds | binds | – |
| MSLN55 VHH-Fc fusion protein (Fc fusion, Tested as bivalent VHH-Fc expressed in EXPI293; also called MSLN-VHH; MSLN nanobody 55; not shown: Fc of the VHH-Fc fusion) QVQLQESGGGLVQSGGSLKLSCAASGNIASINAMGWYRQPPGKQRELVAATSWGGRTNYADSVEGRFTISRDNAKNTVYLQMNSLKPEDTAVYYCKLWDGSSWDIYWGQGTQVTVSS | binds | binds | – |
| MSLN57 VHH-Fc fusion protein (Fc fusion, Tested as bivalent VHH-Fc expressed in EXPI293; also called MSLN-VHH; MSLN nanobody 57; not shown: Fc of the VHH-Fc fusion) QVQLQESGGGMVQPGGSLRLSCAASGSIFSINAMGWYRQPPGKQRELVAATSWGGRTNYADSVEGRFTISRDNAKNTVYLQMNSLKPEDTAVYYCKLWDGSSWDIYWGQGTQVTVSS | binds | binds | – |
| MSLN58 VHH-Fc fusion protein (Fc fusion, Tested as bivalent VHH-Fc expressed in EXPI293; also called MSLN-VHH; MSLN nanobody 58; not shown: Fc of the VHH-Fc fusion) QVQLQESGGGTVQPGGSLRLSCEAVGDSVSINAMGWYRQPPGKQRELVAATSWGGRTNYADSVEGRFTISRDNAKNTVYLQMNSLKPEDTAVYYCKLWDGSSWDIYWGQGTQVTVSS | binds | binds | – |
| MSLN59 VHH-Fc fusion protein (Fc fusion, Tested as bivalent VHH-Fc expressed in EXPI293; also called MSLN-VHH; MSLN nanobody 59; not shown: Fc of the VHH-Fc fusion) QVQLQESGGGLVQPGGSLRLSCTASKRIDSINAMGWYRQPPGKQRELVAATSWGGRTNYADSVEGRFTISRDNAKNTVYLQMNSLKPEDTAVYYCKLWDGSSWDIYWGQGTQVTVSS | binds | binds | – |
| MSLN46 VHH-Fc fusion protein (Fc fusion, Tested as bivalent VHH-Fc expressed in EXPI293; also called MSLN-VHH; MSLN nanobody 46; not shown: Fc of the VHH-Fc fusion) QVQLQESGGGLVQAGGSLRLSCEASGHTDSYYPKAWFRQAPGKEREFVASIGWGGRMTAYADSVKGRFTVSRTYAKNTVYLQMNSLKPEDTAVYYCAAGIGWAPTADSGEYDYWGQGTQVTVSS | binds | binds | binding (Human MSLN-His antigen [3]): binds |
| MSLN52 VHH-Fc fusion protein (Fc fusion, Tested as bivalent VHH-Fc expressed in EXPI293; also called MSLN-VHH; MSLN nanobody 52; not shown: Fc of the VHH-Fc fusion) QVQLQESGGGLVQAGGSLSLSCAASGHTDSYYPKAWFRQAPGKEREFVASIGWGGRMTAYADSVKGRFTVSRTYAKNTVYLQMNSLKPEDTAVYYCAAGIGWAPTADSGEYDYWGQGTQVTVSS | – | – | binding [4]: binds; binding [5]: binds; binding [6]: binds |
| MSLN53 VHH-Fc fusion protein (Fc fusion, Tested as bivalent VHH-Fc expressed in EXPI293; also called MLSN-53; MSLN-VHH; not shown: Fc of the VHH-Fc fusion) QVQLQESGGGLVQPGGSLTLSCEASGHTDSYYPKAWFRQAPGKEREFVASIGWGGRMTAYADSVKGRFTVSRTYAKNTVYLQMNSLKPEDTAVYYCAAGIGWAPTADSGEYDYWGQGTQVTVSS | – | – | binding [4]: binds; binding [5]: binds; binding [6]: binds |
| positive control antibody P4 (antibody, V domains shown, an AHC probe was used in the ForteBio assay; also called positive antibody P4) VH: QVQLQQSGPGLVTPSQTLSLTCAISGDSVSSNSATWNWIRQSPSRGLEWLGRTYYRSKWYNDYAVSVKSRMSINPDTSKNQFSLQLNSVTPEDTAVYYCARGMMTYYYGMDVWGQGTTVTVSS VL: QPVLTQSSSLSASPGASASLTCTLRSGINVGPYRIYWYQQKPGSPPQYLLNYKSDSDKQQGSGVPSRFSGSKDASANAGVLLISGLRSEDEADYYCMIWHSSAAVFGGGTQLTVLS | – | – | binding (Human MSLN-His antigen [7]): binds; binding (Human MSLN-His antigen [3]): binds; binding (Human MSLN-His antigen [8]): binds |
| MSLN50 VHH-Fc fusion protein (Fc fusion, Tested as bivalent VHH-Fc expressed in EXPI293; also called MSLN-VHH; MSLN nanobody 50; not shown: Fc of the VHH-Fc fusion) QVQLQESGGGLVQPGGSLRLSCAASGSISKIAIMGWYRQPPGNERELIAIANMTGTGVYRDTVKGRFTIRRDNAKNMVYLQMNNLKSEDTGVYYCHARQLGVGSFESWGQGTQVTVSS | binds | binds | – |
| MSLN48 VHH-Fc fusion protein (Fc fusion, Tested as bivalent VHH-Fc expressed in EXPI293; also called MSLN-VHH; MSLN nanobody 48; not shown: Fc of the VHH-Fc fusion) QVQLQESGGGLVQPGGSLRLSCAASESIFSNYSASWYRQAPGKQRELVATIARTGSAFHLGSVKGRFTISRDNAKRTVYLQMNSLLPEDTAVYYCNVWDSWGQGTQVTVSS | binds | binds | – |
